Experimental data taken from publication PMC7862563.
These are yes or no findings as the source states them, for the method shown. Binding seen in cells or lysates may run through a third protein. These calls come from enrichment with a bait or labelling near it, and not all partners need be listed. Tags and fused reporters may be left off the sequences shown.

Molecular target: T1, FLAG-RNF180 (RING finger protein 180) (UniProt Q86T96)
T1 sequence: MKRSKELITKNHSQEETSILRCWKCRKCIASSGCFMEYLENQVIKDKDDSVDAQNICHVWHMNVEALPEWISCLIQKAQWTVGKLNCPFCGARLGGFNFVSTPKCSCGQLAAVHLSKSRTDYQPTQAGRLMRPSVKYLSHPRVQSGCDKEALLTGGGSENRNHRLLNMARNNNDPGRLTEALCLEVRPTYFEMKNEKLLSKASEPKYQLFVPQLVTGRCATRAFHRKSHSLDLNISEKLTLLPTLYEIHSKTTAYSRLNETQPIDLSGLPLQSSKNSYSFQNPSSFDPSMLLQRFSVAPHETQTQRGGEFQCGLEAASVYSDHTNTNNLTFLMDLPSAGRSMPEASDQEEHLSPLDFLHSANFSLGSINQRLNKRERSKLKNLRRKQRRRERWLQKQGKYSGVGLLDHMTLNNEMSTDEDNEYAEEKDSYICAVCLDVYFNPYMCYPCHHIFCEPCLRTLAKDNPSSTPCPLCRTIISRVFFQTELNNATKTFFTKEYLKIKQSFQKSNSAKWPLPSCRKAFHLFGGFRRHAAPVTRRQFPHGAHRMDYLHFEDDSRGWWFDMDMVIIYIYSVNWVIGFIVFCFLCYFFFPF
Test: affinity purification with mass spectrometry; lysate of 293T cells stably expressing FLAG-RNF180 (RIPA: 20 mM Tris pH7.5, 150 mM NaCl, 1% Triton X-100) on anti-FLAG magnetic beads overnight at 4°C; eluted with FLAG peptide, SDS-PAGE, Coomassie, LC/MS

B1: WNT1 inducible signaling pathway protein 1 (WISP1) (protein, UniProt O95388 23-367)
chain: TALSPAPTTMDFTPAPLEDTSSRPQFCKWPCECPPSPPRCPLGVSLITDGCECCKMCAQQLGDNCTEAAICDPHRGLYCDYSGDRPRYAIGVCAQVVGVGCVLDGVRYNNGQSFQPNCKYNCTCIDGAVGCTPLCLRVRPPRLWCPHPRRVSIPGHCCEQWVCEDDAKRPRKTAPRDTGAFDAVGEVEAWHRNCIAYTSPWSPCSTSCGLGVSTRISNVNAQCWPEQESRLCNLRPCDVDIHTLIKAGKKCLAVYQPEASMNFTLAGCISTRSYQPKYCGVCMDNRCCIPYKSKTIDVSFQCPDGLGFSRQVLWINACFCNLSCRNPNDIFADLESYPDFSEIAN
binding: binds
